Some entries share one result that the patent states for a list of compounds.
Target: T1, human 5HT2c receptor (Homo sapiens, UniProt P28335, I156V/I160V, form not given)
T1 sequence (P28335 1-458 I156V/N158S/I160V): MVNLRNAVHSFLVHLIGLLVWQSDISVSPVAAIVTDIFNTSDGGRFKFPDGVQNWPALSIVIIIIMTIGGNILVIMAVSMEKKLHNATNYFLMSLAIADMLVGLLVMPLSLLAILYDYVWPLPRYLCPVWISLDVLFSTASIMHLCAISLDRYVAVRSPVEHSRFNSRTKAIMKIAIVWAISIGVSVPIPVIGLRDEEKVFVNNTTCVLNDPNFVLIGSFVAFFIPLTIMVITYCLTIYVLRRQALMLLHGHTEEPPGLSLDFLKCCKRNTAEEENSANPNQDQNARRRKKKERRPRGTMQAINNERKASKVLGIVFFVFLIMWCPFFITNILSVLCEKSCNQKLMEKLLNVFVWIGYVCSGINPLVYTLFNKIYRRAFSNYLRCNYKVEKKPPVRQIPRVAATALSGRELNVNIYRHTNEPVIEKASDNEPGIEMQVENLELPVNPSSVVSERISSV
Assay: Calcium mobilization (FLIPR) 5HT2c receptor agonist assay in HEK 293 EBNA cells
Assay type: cell-based
Settings: agonist-stimulated calcium release, HEK 293 EBNA cells expressing human 5HT2c receptor, read-out: 5-HT2c EC50 (hVSV)

Q: `CC1CNCCc2cc(Br)sc21` (single isomer, unassigned) [24, Enantiomer 1] was tested. Which EC50 did it give?
A: < 100 nM
